Assay results published in PubChem BioAssay AID330 (DTP/NCI, 2004).
The list is a part of this screen's results and no random one: it gathers tests that were run many times, whatever their T/C, doses with no T/C, and many T/C values between a quarter and a half above the control. Further doses and runs are listed elsewhere. T/C gives the treated animals as a percentage of the vehicle group. Some doses have a count of surviving animals in place of a T/C: the source holds a T/C of zero for them, seemingly a mark for toxic or unscored doses. Some doses without a T/C left all or most animals alive at the check, yet need not have been tolerated: survival well below the control is almost never listed, so the zero probably covers shortened survival too. Counts of survivors are from the toxicity check (mostly the fifth day) where no day follows; animals may have died later. Schedules are NCI's codes, read here as Q, the interval in days (D) or hours (H), X, the number of doses. Some doses were run more than once; the results are listed from low to high. Where survival is the endpoint, the PubChem record calls one and a half times the control and up active, and a quarter to a half above the control has no call in these data; cut-offs in other NCI protocols can differ. Some T/C values carry the count of animals alive at the toxicity check (mostly the fifth day); where none is given, no animal had died by that day. Additions like (4×) say how often a value occurs here. Some schedules carry Z or #; the key to these is not given.

System: P388 leukemia ip, CD2F1 mice, survival T/C
Test: NCI In Vivo Anticancer Drug Screen. Data for tumor model P388 Leukemia (intraperitoneal) in CD2F1 (CDF1) mice
Settings: T/C endpoint: median survival time, higher T/C = longer survival
[1] = dose: 50.0 mg/kg/injection, schedule: Q01DX009 (ip), vehicle: Klucel (hydroxypropylcellulose) (HPC)

O=P1(N(CCCl)CCCl)NCCCO1 (stereo not drawn)
T/C (dose: 50.0 mg/kg/injection, schedule: Q01DX001 (ip), vehicle: saline, evaluated on day 10): 148 % of control
T/C (dose: 50.0 mg/kg/injection, schedule: Q01DX001 (ip), vehicle: saline, evaluated on day 60): 135 % of control
T/C (dose: 50.0 mg/kg/injection, schedule: Q01DX005 (ip), vehicle: Klucel (hydroxypropylcellulose) (HPC), evaluated on day 30): 95, 113, 115, 118, 146, 163, 222, 226, 240 (2×), 245 (2×), 249, 250 (2×), 252, 252 [5 of 6 alive], 256, 258, 260, 266, 267, 272, 276, 277 (2×), 279, 285, 288 (3×), 294 (2×), 299 % of control
T/C (dose: 50.0 mg/kg/injection, schedule: Q01DX005 (ip), vehicle: Klucel (hydroxypropylcellulose) (HPC), evaluated on day 35): 343 % of control
T/C (dose: 50.0 mg/kg/injection, schedule: Q01DX005 (ip), vehicle: saline, evaluated on day 30): 178, 201, 275, 294 (3×), 297, 309 % of control
T/C (dose: 50.0 mg/kg/injection, schedule: Q01DX005 (ip), vehicle: saline, evaluated on day 45): 346 and 354 % of control
T/C [1]: 90, 97, 107, 109, 112, 119, 123, 127, 134, 143, 144, 146, 159, 163, 164, 166, 169, 170, 177, 182, 215, 219, 221, 232, 236, 254, 263, 265, 276, 278, 286, 290, 291, 309 % of control
survivor count [1]: 6 of 6
T/C (dose: 50.0 mg/kg/injection, schedule: Q01DX009 (ip), vehicle: saline, evaluated on day 5): 437 % of control
T/C (dose: 50.0 mg/kg/injection, schedule: Q01DX009 (ip), vehicle: saline, evaluated on day 30): 159, 233, 268, 291 % of control
T/C (dose: 50.0 mg/kg/injection, schedule: Q04DX002 (ip), vehicle: Klucel (hydroxypropylcellulose) (HPC)): 142, 152, 157, 162, 166, 175, 181, 197, 198, 204, 209, 210, 211 (2×), 213, 215 (2×), 216, 218 [5 of 6 alive], 219, 227, 232, 233, 241 (2×), 242 (2×), 257, 258, 263, 264, 265, 270 (2×), 284 % of control
T/C (dose: 50.0 mg/kg/injection, schedule: Q04DX003 (ip), vehicle: Klucel (hydroxypropylcellulose) (HPC), evaluated on day 30): 129, 146, 151, 154, 163, 174, 179, 194, 209, 213, 214, 220, 222, 228 (2×), 232, 236 (2×), 238, 245, 247 (2×), 250, 251, 252 (3×), 254, 257, 263, 271, 275, 277, 280, 297 % of control
T/C (dose: 50.0 mg/kg/injection, schedule: Q04DX003 (ip), vehicle: Klucel (hydroxypropylcellulose) (HPC), evaluated on day 35): 308 % of control
T/C (dose: 50.0 mg/kg/injection, schedule: Q04DX003 (ip), vehicle: saline, evaluated on day 30): 248 % of control
T/C (dose: 50.0 mg/kg/injection, schedule: Q04DX003 (ip), vehicle: saline, evaluated on day 45): 212 and 230 % of control
T/C (dose: 50.0 mg/kg/injection, schedule: Q04DX003 (ip), vehicle: saline, evaluated on day 50): 236 % of control
T/C (dose: 50.0 mg/kg/injection, schedule: Q## X001 (ip), vehicle: saline): 100, 111, 118, 123 % of control
T/C (dose: 60.0 mg/kg/injection, schedule: Q01DX010 (ip), vehicle: water): 145 % of control
T/C (dose: 75.0 mg/kg/injection, schedule: Q01DX001 (ip), vehicle: saline, evaluated on day 5): 151 and 155 % of control
T/C (dose: 75.0 mg/kg/injection, schedule: Q01DX001 (ip), vehicle: saline, evaluated on day 9): 94, 123, 143, 160, 179, 195, 197 % of control
T/C (dose: 80.0 mg/kg/injection, schedule: Q01DX005 (ip), vehicle: saline, evaluated on day 9): 230 % of control
T/C (dose: 80.0 mg/kg/injection, schedule: Q01DX005 (ip), vehicle: saline, evaluated on day 30): 98, 100, 133, 198, 225 [5 of 6 alive], 247 [5 of 6 alive], 250, 255, 265 (3×), 270, 275, 277, 285, 294 (2×), 297 (3×), 300 (5×), 309 % of control
T/C (dose: 80.0 mg/kg/injection, schedule: Q01DX005 (ip), vehicle: saline, evaluated on day 35): 110 % of control
T/C (dose: 80.0 mg/kg/injection, schedule: Q01DX005 (ip), vehicle: saline, evaluated on day 60): 550 and 582 % of control
survivor count (dose: 80.0 mg/kg/injection, schedule: Q01DX005 (ip), vehicle: saline): 6 of 6
T/C (dose: 80.0 mg/kg/injection, schedule: Q01DX009 (ip), vehicle: saline, evaluated on day 30): 89, 97, 99, 100 (2×), 105 [5 of 6 alive], 150, 159, 172, 175, 178, 190, 191, 254, 270 (3×), 283, 285 (2×), 290, 297 (2×), 300 % of control (3×)
T/C (dose: 80.0 mg/kg/injection, schedule: Q01DX009 (ip), vehicle: saline, evaluated on day 35): 168 % of control
T/C (dose: 80.0 mg/kg/injection, schedule: Q01DX009 (ip), vehicle: saline, evaluated on day 45): 107 % of control
T/C (dose: 80.0 mg/kg/injection, schedule: Q01DX009 (ip), vehicle: saline, evaluated on day 60): 146 and 582 % of control
survivor count (dose: 80.0 mg/kg/injection, schedule: Q01DX009 (ip), vehicle: saline): 5 of 5 and 6 of 6
T/C (dose: 100.0 mg/kg/injection, schedule: Q01DX001 (ip), vehicle: Klucel (hydroxypropylcellulose) (HPC), evaluated on day 30): 101, 138, 167 [4 of 6 alive], 184, 190, 206, 208 (2×), 209, 214, 221, 237, 238, 241 (2×), 245 (2×), 247, 252 (2×), 254 (2×), 263, 264, 276, 283, 291, 294 % of control (2×)
T/C (dose: 100.0 mg/kg/injection, schedule: Q01DX001 (ip), vehicle: Klucel (hydroxypropylcellulose) (HPC), evaluated on day 35): 250 % of control
survivor count (dose: 100.0 mg/kg/injection, schedule: Q01DX001 (ip), vehicle: Klucel (hydroxypropylcellulose) (HPC)): 3 of 3 and 6 of 6
T/C (dose: 100.0 mg/kg/injection, schedule: Q01DX001 (ip), vehicle: saline, evaluated on day 5): 181, 194 (2×), 202 % of control
T/C (dose: 100.0 mg/kg/injection, schedule: Q01DX001 (ip), vehicle: saline, evaluated on day 9): 96, 115, 135 % of control
T/C (dose: 100.0 mg/kg/injection, schedule: Q01DX001 (ip), vehicle: saline, evaluated on day 10): 190 % of control
T/C (dose: 100.0 mg/kg/injection, schedule: Q01DX001 (ip), vehicle: saline, evaluated on day 21): 194 % of control
T/C (dose: 100.0 mg/kg/injection, schedule: Q01DX001 (ip), vehicle: saline, evaluated on day 30): 167 [5 of 6 alive], 175, 179, 186, 193, 200 (2×), 208, 209, 215 (2×), 216 (2×), 217, 218, 230 (2×), 233, 247, 254, 258, 260, 265, 268, 294, 297 % of control
T/C (dose: 100.0 mg/kg/injection, schedule: Q01DX001 (ip), vehicle: saline, evaluated on day 35): 233 % of control
T/C (dose: 100.0 mg/kg/injection, schedule: Q01DX001 (ip), vehicle: saline, evaluated on day 60): 120, 174, 181 % of control
survivor count (dose: 100.0 mg/kg/injection, schedule: Q01DX001 (ip), vehicle: saline): 6 of 6
T/C (dose: 100.0 mg/kg/injection, schedule: Q01DX005 (ip), vehicle: Klucel (hydroxypropylcellulose) (HPC), evaluated on day 30): 87, 92, 94, 104, 106, 111, 114, 116, 117, 125, 127, 129, 132, 134, 156, 159, 161, 163, 171, 176, 222, 250, 251, 256, 265, 277, 288 (2×), 294, 297 % of control
T/C (dose: 100.0 mg/kg/injection, schedule: Q01DX005 (ip), vehicle: Klucel (hydroxypropylcellulose) (HPC), evaluated on day 35): 137 % of control
